Where a protein sequence is shown, tags need not be part of it.
Biological target: T1, Carcinoembryonic antigen (CEA) (Homo sapiens) (UniProt P06731)
T1 sequence (looked up, limits assumed): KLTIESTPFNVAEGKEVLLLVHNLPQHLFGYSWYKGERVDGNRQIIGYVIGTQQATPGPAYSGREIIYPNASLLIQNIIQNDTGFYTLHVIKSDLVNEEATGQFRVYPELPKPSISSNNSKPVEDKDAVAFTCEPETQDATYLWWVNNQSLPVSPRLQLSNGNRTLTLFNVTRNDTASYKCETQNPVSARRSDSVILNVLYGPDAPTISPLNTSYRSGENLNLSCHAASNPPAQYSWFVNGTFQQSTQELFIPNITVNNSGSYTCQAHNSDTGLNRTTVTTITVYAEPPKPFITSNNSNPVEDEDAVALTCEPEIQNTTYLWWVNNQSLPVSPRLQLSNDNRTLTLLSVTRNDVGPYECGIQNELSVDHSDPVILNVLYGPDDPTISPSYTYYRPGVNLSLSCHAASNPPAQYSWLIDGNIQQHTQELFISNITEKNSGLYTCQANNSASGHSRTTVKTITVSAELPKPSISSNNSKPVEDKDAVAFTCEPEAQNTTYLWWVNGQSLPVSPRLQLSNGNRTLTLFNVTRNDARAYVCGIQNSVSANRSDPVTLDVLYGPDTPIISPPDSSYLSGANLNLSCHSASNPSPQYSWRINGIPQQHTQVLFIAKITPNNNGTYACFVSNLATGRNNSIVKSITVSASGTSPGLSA
Test: FP
Details: no binding at 2-800 nM; purified native protein; label: 5'-fluorescein; single-stranded DNA

“CGGGAATTCTGGCTCTGCGACATGA [random sequence (random primer)]” gave a Kd greater than 800 nM.
